According to PubChem BioAssay AID504834 (National Center for Advancing Translational Sciences (NCATS), 2011):
About 22,000 (6.9%) of roughly 320,000 compounds were called active. Inconclusive means that the source gave no clear call. Such entries were picked first, then a sample of the others. Calls come from the whole dose curve; as a rule, active = well fitted inhibition curve with a large enough effect; inconclusive = small, poorly fitted or top-dose-only effect, or another doubt; inactive = no such curve, though single readings can be large or run the other way. A potency beside an inconclusive call is a rough fit, not a confirmed value.

experiment: Primary qHTS for delayed death inhibitors of the malarial parasite plastid, 96 hour incubation; conditions: P. falciparum luciferase reporter growth; series mostly up to 28.7 µM
Method in brief: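 P. falciparum expressing integrated firefly luciferase, in erythrocytes at 2% hematocrit, 0.05% parasitemia, incubated with compounds 96 h at 37 C, 5% CO2. Growth inhibition read as loss of luminescence; two-generation exposure targets delayed-death apicoplast inhibitors.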
Potency is the fitted concentration of half-maximal effect.

**Q.** For Cc1cc(/C=C2\C(=O)NC(=O)N(c3ccc(Cl)cc3)C2=O)c(C)n1-c1cccc(C(=O)O)c1, which Potency is on record?
**A.** inconclusive: 1.85 µM [inhibitor, full curve, poor fit]

**Q.** Which Potency does the source give for C=CCC(C)(NCc1ccccc1)c1ccc(C)cc1 (stereo not drawn) here?
**A.** inactive

**Q.** For CCc1ccc(NC(=O)CN(C)S(=O)(=O)c2ccc3[nH]c(=O)oc3c2)cc1, which Potency is on record?
**A.** inconclusive: 18.5 µM [inhibitor, single point]

**Q.** Which Potency does the source give for COc1ccc(NC(=S)Nc2cc(S(=O)(=O)N3CCCCC3)ccc2OC)cc1 here?
**A.** inconclusive: 6.57 µM [inhibitor, partial curve]

**Q.** With CCc1nc(SCc2ccc(OC)cc2)n[nH]1 as the compound, how does the Potency read?
**A.** inactive

**Q.** With COc1ccc(/C=N/NC(=O)c2sc(C)nc2C)cc1 as the compound, how does the Potency read?
**A.** inactive

**Q.** For C=CCNc1nc(N)c(C(=C(C#N)C#N)c2ccccc2)s1, which Potency is on record?
**A.** inconclusive: 18.5 µM [inhibitor, single point]

**Q.** Which Potency does the source give for Cc1cc(C)c(C#N)c(SCC(O)COc2ccc(Br)cc2)n1 (stereo not drawn) here?
**A.** inconclusive: 18.5 µM [inhibitor, single point]

**Q.** Which Potency does the source give for CC(C)C(C(=O)OCC(=O)c1cccc([N+](=O)[O-])c1)N1C(=O)[C@@H]2[C@H]3CC[C@H](C3)[C@@H]2C1=O (stereo partly drawn) here?
**A.** inconclusive: 18.5 µM [inhibitor, partial curve, poor fit]

**Q.** Which Potency does the source give for O=C1CC(C(=O)N2CCc3ccccc32)CN1c1ccc(F)cc1 (stereo not drawn) here?
**A.** inactive

**Q.** For O=C(NCCN1CCCCC1)Nc1cccc(Cl)c1Cl, which Potency is on record?
**A.** active: 13.1 µM

**Q.** With CC(=O)c1ccc(NC(=O)C(C)N(C)CC(=O)Nc2ccccc2Cl)cc1 (stereo not drawn) as the compound, how does the Potency read?
**A.** inconclusive: 0.522 µM [inhibitor, full curve, poor fit]

**Q.** With CCOC(=O)C1(CCOC)CCN(C(=O)Cc2ccsc2)CC1 as the compound, how does the Potency read?
**A.** inconclusive: 18.5 µM [inhibitor, single point]

**Q.** With Cc1ccccc1N1CCN(c2ncnc3scc(-c4cccs4)c23)CC1 as the compound, how does the Potency read?
**A.** inactive

**Q.** Which Potency does the source give for COc1ccc([C@@H]2[C@@H]3C(=O)N(C(C)(C)C)C(=O)[C@@H]3[C@]3(Cc4ccccc4)C(=O)N(c4ccccc4)C(=O)N23)cc1 here?
**A.** inconclusive: 18.5 µM [inhibitor, single point]

**Q.** For O=C(Nc1ccnn1C1CCN(C(=O)c2cnsn2)CC1)c1cccc(F)c1, which Potency is on record?
**A.** inconclusive: 13.1 µM [inhibitor, single point]

**Q.** For Cc1nnc(Nc2ccc(F)cc2)c2ccccc12, which Potency is on record?
**A.** inconclusive: 4.15 µM [inhibitor, single point]

**Q.** For COCc1c(C(=O)NC2CCCCCC2)oc2ccccc12, which Potency is on record?
**A.** inactive

**Q.** With C#CCOCCOCCOCCNc1nc(N2CCN(C(=O)C([C@@H](C)CC)n3cc(C(N)CC(C)C)nn3)CC2)nc(N2CCN(C(=O)[C@H](CCC(=O)O)n3cc(C(N)CC(C)C)nn3)CC2)n1 (stereo partly drawn) as the compound, how does the Potency read?
**A.** inactive

**Q.** With O=C(CSc1cn(CCNC(=O)c2ccccc2)c2ccccc12)NCc1ccco1 as the compound, how does the Potency read?
**A.** inconclusive: 11.7 µM [inhibitor, single point]

**Q.** With O=C(CN(CCO)c1ccccc1)Nc1cccc(S(=O)(=O)N2CCCC2)c1 as the compound, how does the Potency read?
**A.** active: 13.1 µM

**Q.** Which Potency does the source give for Cc1ccc(S(=O)(=O)N2CCN(c3ncnc4sccc34)CC2)cc1 here?
**A.** inconclusive: 18.5 µM [inhibitor, partial curve, poor fit]

**Q.** Which Potency does the source give for C/C(Cl)=C\Cn1c(O)c(N=NC(N)=S)c2ccccc21 here?
**A.** inactive

**Q.** With COc1ccc(N2CCN(C(=O)C3CCN(C(=O)c4ccccc4Cl)CC3)CC2)cc1 as the compound, how does the Potency read?
**A.** inactive

**Q.** With CCCCOC(=O)c1cc(=O)[nH]c2ccccc12 as the compound, how does the Potency read?
**A.** active: 11.7 µM

**Q.** With O=C(/C=C/c1ccccc1)NCC1(c2ccccc2)CCOCC1 as the compound, how does the Potency read?
**A.** inconclusive: 11.7 µM [inhibitor, single point]

**Q.** For O=C(NCCN1CCOCC1)c1cc(-c2ccccc2Cl)nc2ccccc12, which Potency is on record?
**A.** active: 9.28 µM

**Q.** For Cc1c(C(=O)NCc2cccnc2)oc2ccc(S(=O)(=O)N3CCCCC3)cc12, which Potency is on record?
**A.** inconclusive: 18.5 µM [inhibitor, single point]

**Q.** With COc1cc(NC(=O)/C=C/c2ccccc2[N+](=O)[O-])cc(OC)c1 as the compound, how does the Potency read?
**A.** inactive

**Q.** Which Potency does the source give for CSc1ccc(Cl)c(C(=O)Nc2ccc(C)cn2)c1 here?
**A.** inactive

**Q.** With O=C(N/N=C/c1ccc(Br)s1)c1cccs1 as the compound, how does the Potency read?
**A.** inactive

**Q.** Which Potency does the source give for Cc1csc(NC(=O)c2ccc[nH]c2=O)n1 here?
**A.** inactive

**Q.** With CCCCOc1ccc(C(=O)N/C(=C/C=C/c2ccccc2)C(=O)O)cc1 as the compound, how does the Potency read?
**A.** inactive

**Q.** With CN(C)/C=C(\C#N)C(=O)c1cccc(Oc2ccc(Br)cc2)c1 as the compound, how does the Potency read?
**A.** inconclusive: 18.5 µM [inhibitor, single point]

**Q.** Which Potency does the source give for CC(=O)N1CCN(CC(=O)Nc2cc(F)ccc2C)CC1 here?
**A.** inconclusive: 11.7 µM [inhibitor, single point]

**Q.** For C=CCn1cccc(/C=C/C(=O)c2ccc(C(C)(C)C)cc2)c1=S, which Potency is on record?
**A.** inconclusive: 18.5 µM [inhibitor, single point]

**Q.** Which Potency does the source give for Cc1nnc(SCC(=O)NC(=O)NCc2ccco2)n1Cc1ccccc1 here?
**A.** inconclusive: 18.5 µM [inhibitor, single point]

**Q.** Which Potency does the source give for Nc1nc(-n2cnnc2)nn1-c1ccccc1 here?
**A.** inactive

**Q.** With c1ccc(CCCN2CCOCC2)cc1 as the compound, how does the Potency read?
**A.** inconclusive: 2.33 µM [inhibitor, full curve, poor fit]

**Q.** With Cc1ccc(-c2nc(S(=O)(=O)c3ccc(F)cc3)c(SCC(=O)NCC3CCCO3)o2)cc1 (stereo not drawn) as the compound, how does the Potency read?
**A.** inactive

**Q.** With CN(C)CC(O)COc1cccc(OCC(O)CN(C)C)c1 (stereo not drawn) as the compound, how does the Potency read?
**A.** inconclusive: 10.4 µM [inhibitor, single point]

**Q.** With Cc1cc(C)n(C(=O)Cn2nc(C)c(Br)c2C)n1 as the compound, how does the Potency read?
**A.** inactive

**Q.** For CC1Cc2cc(S(=O)(=O)N3CCCCC3)ccc2N1C(=O)C1CCC1 (stereo not drawn), which Potency is on record?
**A.** inconclusive: 11.7 µM [inhibitor, partial curve]

**Q.** Which Potency does the source give for Cc1ncc(CN2CCC(CO)(CCc3ccccc3)CC2)s1 here?
**A.** inconclusive: 18.5 µM [inhibitor, single point]

**Q.** With Cc1ccc(CN2CCN(Cc3cnc(N4CCOCC4)s3)CC2CCO)cc1 (stereo not drawn) as the compound, how does the Potency read?
**A.** inconclusive: 0.0465 µM [inhibitor, full curve, poor fit]

**Q.** For CC(C)OC(=O)CSc1nc(Cc2ccccc2)nc2ccccc12, which Potency is on record?
**A.** inconclusive: 6.57 µM [inhibitor, partial curve, poor fit]

**Q.** Which Potency does the source give for Cc1ccc2nsnc2c1NC(=O)CCl here?
**A.** inconclusive: 10.4 µM [inhibitor, single point]

**Q.** For Cc1cc(C)cc(NC(=O)c2cc(=O)c3ccccc3o2)c1, which Potency is on record?
**A.** inconclusive: 16.5 µM [inhibitor, single point]

**Q.** With Cn1ncc(Br)c1C(=O)N1CCCCCC1 as the compound, how does the Potency read?
**A.** inactive

**Q.** For COc1ccc(/C(C)=N/NC(=O)CNC(=O)c2cccs2)cc1OC, which Potency is on record?
**A.** inconclusive: 18.5 µM [inhibitor, single point]

**Q.** With S=C(NCCc1ccccn1)NC1CC2CCC1C2 (stereo not drawn) as the compound, how does the Potency read?
**A.** inconclusive: 18.5 µM [inhibitor, single point]

**Q.** With CC(/C=C/c1ccccc1)=N\NC(=O)CSc1ccccn1 as the compound, how does the Potency read?
**A.** inconclusive: 13.1 µM [inhibitor, single point]

**Q.** Which Potency does the source give for C/C(CC(=O)Nc1cccc2c1CCCC2)=N\NC(=O)c1ccccc1N here?
**A.** inactive

**Q.** Which Potency does the source give for Cc1cccc(NC(=O)c2nc[nH]c2C(=O)N2CCN(C(=O)OC(C)(C)C)CC2)c1 here?
**A.** inconclusive: 11.7 µM [inhibitor, single point]

**Q.** Which Potency does the source give for COc1ccc(C2CC(=O)C(C=NCCN3CCNCC3)=C(O)C2)cc1OC (stereo not drawn) here?
**A.** active: 13.1 µM

**Q.** Which Potency does the source give for O=C(c1ccccc1)c1c[nH]c2ccccc12 here?
**A.** inactive

**Q.** With N=c1n(CC(=O)c2ccc([N+](=O)[O-])cc2)c2ccccc2n1Cc1ccccc1Cl as the compound, how does the Potency read?
**A.** inconclusive: 13.1 µM [inhibitor, single point]

**Q.** With Cc1ccsc1C(=O)C1CCCN(Cc2cccc(-n3cccn3)c2)C1 (stereo not drawn) as the compound, how does the Potency read?
**A.** inconclusive: 18.5 µM [inhibitor, single point]

**Q.** Which Potency does the source give for Cn1c(Sc2nc3ccccc3n2C)nc2ccccc21 here?
**A.** inactive

**Q.** Which Potency does the source give for O=C(NCc1ccccc1CN1CCCC1)c1cc2ccccc2o1 here?
**A.** inconclusive: 10.4 µM [inhibitor, single point]

**Q.** Which Potency does the source give for N#Cc1ccsc1NC(=O)CN(Cc1ccccc1)Cc1ccccc1 here?
**A.** inconclusive: 13.1 µM [inhibitor, single point]

**Q.** Which Potency does the source give for COc1cc(OC)cc(C(=O)Nc2nc(-c3ccccc3)c(-c3ccccc3)o2)c1 here?
**A.** inconclusive: 18.5 µM [inhibitor, single point]

**Q.** For CC1(C)OC(c2ccccc2)=C/C(=C/C=C2C(=O)NC(=O)NC2=O)O1, which Potency is on record?
**A.** inactive

**Q.** With O=C(COc1ccc(/C=N/NC(=O)C(=O)N2CCCCCC2)cc1)Nc1ccccc1Cl as the compound, how does the Potency read?
**A.** inactive

**Q.** With COc1ccc(CNS(=O)(=O)c2cc(OCC(N)=O)c(C)cc2Cl)cc1 as the compound, how does the Potency read?
**A.** inconclusive: 1.17 µM [inhibitor, partial curve, poor fit]

**Q.** Which Potency does the source give for O=C(CCC(=O)Nc1ccc(F)cc1)N/N=C/c1ccccc1O here?
**A.** inactive

**Q.** For Cc1ccc(S(=O)(=O)Nc2ccc3c(c2)nc(CCN2CCN(c4ccccn4)CC2)n3C)cc1, which Potency is on record?
**A.** inconclusive: 13.1 µM [inhibitor, single point]

**Q.** Which Potency does the source give for Cc1ccc(Nc2nc(C(=O)N3CCC(C(=O)NCc4ccccc4)CC3)cs2)cc1 here?
**A.** inconclusive: 13.1 µM [inhibitor, single point]

**Q.** Which Potency does the source give for O=c1nc2n(c3cc(Cl)c(S(=O)(=O)N4CCOCC4)cc13)CCCCC2 here?
**A.** active: 9.28 µM

**Q.** For CC(C)(C)NC(=O)COc1ccc2oc3c(c2c1)CCCC3, which Potency is on record?
**A.** inconclusive: 10.4 µM [inhibitor, single point]

**Q.** Which Potency does the source give for COc1ccccc1C(=O)N/C(=C/c1ccc(Br)cc1)C(=O)NCC(=O)O here?
**A.** inconclusive: 0.0738 µM [inhibitor, full curve, poor fit]

**Q.** With COc1cccc(C2CC(C(F)(F)F)n3ncc(C(=O)NCc4ccco4)c3N2)c1 (stereo not drawn) as the compound, how does the Potency read?
**A.** inactive

**Q.** Which Potency does the source give for FC(F)(F)Oc1ccc(-c2cn3cccnc3n2)cc1 here?
**A.** inactive
